# Literature values, collected in patent publication EP3456336B1, “A CELERY SEED AND SOPHORA FLOWER BUD EXTRACT AND MEDICAL USE THEREOF” (Beijing Tianheng Junwei Pharmaceutical Tech Co., Ltd, priority 2016, dated 2017).
# At least one structure is not confirmed: it was looked up by name or label, or the drawing left a doubt.
# Key:
# rat = conditions: intraperitoneal injection; cited from earlier work
# aldose reductase = aldose reductase (Homo sapiens, UniProt P15121); conditions: concentration 10-5 mol/L; cited from earlier work
smiles,measurement,setting,value
C[C@@H]1O[C@@H](OC[C@H]2O[C@@H](Oc3c(-c4ccc(O)c(O)c4)oc4cc(O)cc(O)c4c3=O)[C@H](O)[C@@H](O)[C@@H]2O)[C@H](O)[C@H](O)[C@H]1O [rutin],inhibitory effect on the inflammatory process after implanting wool balls,rat,significant inhibitory effect
same,inhibitory rate,aldose reductase,95%
